This note sets out measurements from PubChem BioAssay AID2810 (NMMLSC, 2010).

The other results are listed elsewhere or left out. Shown are side measurements of this screen, not its main read-out; they come without a call.

The experiment can be described thus: modulators of CD8 T cell-vesicle binding, confirmation, cherry-picked primary hits, two concentrations (AID 2810).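 For all read-outs here: lower values mean blocking of vesicle binding.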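 For percent response (vesicle binding): ratio of mean FL2 vesicle stain of CD8+ cells to that row's control.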 Conditions: 2C CD8+ T cell-vesicle binding, flow cytometry; for double positive events: CD8+/vesicle+ events.
[1] abbreviates: at 15.4 µM, stronger effect = lower value.

Regarding `COC(=O)C1=C(c2ccc(F)cc2F)C[C@@H]2CC[C@H]1N2C(=O)NCCNC(C)=O`, the double positive events came to 12.8% (at 7.7 µM) and 7.1% under setting [1]. This compound also came in with a percent response (vesicle binding) (at 7.7 µM) of 114%.
Take `COCCCn1c(N)c(C(=O)Nc2sc3c(c2C(=O)OC)CCCC3)c2nc3ccccc3nc21`: for the setting “at 7.7 µM”, the double positive events came to 4.9% and the percent response (vesicle binding) was determined as 217%. In addition, the double positive events under setting [1] is 36.1%.
For the setting “at 7.7 µM”, `CCCCn1c(=O)c(C(=O)NCc2ccncc2)c(O)c2ccccc21` came in with a double positive events of 28.4% and a percent response (vesicle binding) of 252%. The double positive events under setting [1] is 16.7%.
The matching figures for `CC1CCCN(C(=O)c2ccc(N3CC4CC(C3)c3cccc(=O)n3C4)c([N+](=O)[O-])c2)C1` (stereo not drawn): 7.8%, 248% and 22.2%.
Consider `COC(=O)C1=C(c2ccccc2OCc2ccccc2)C[C@@H]2CC[C@H]1N2C(=O)NCc1ccc(Br)cc1`, for which, for the setting “at 7.7 µM”, the double positive events was found to be 32.4% and the percent response (vesicle binding) turned out to be 183%. Under setting [1], this compound yielded a double positive events of 29%.
The matching figures for `CN1[C@H]2CC[C@@H]1C(C(=O)N1CCOCC1)=C(O)C2`: 13.1%, 189% and 23.1%.
The matching figures for `CC(C)(O)C(=O)Nc1ccc([N+](=O)[O-])c(C(F)(F)F)c1`: 5.6%, 225% and 3.6%.
`COC(=O)C1=C(c2c(C)noc2C)C[C@@H]2CC[C@H]1N2C(=O)NCCOc1ccccc1Cl`: where the note is “at 7.7 µM”, the double positive events came to 18.8% and the percent response (vesicle binding) amounted to 193%. Under setting [1], the double positive events is 16%.
For the setting “at 7.7 µM”, `CCC(=NCCOc1ccc(Cl)cc1)c1c(O)n(C)c(=O)n(C)c1=O` showed a double positive events of 23.2% and a percent response (vesicle binding) of 709%. Under setting [1], this compound yielded a double positive events of 18%.
On to `COc1ccccc1NC(=O)COC(=O)c1cc(C)n(C2CC2)c1C`, for which the double positive events by setting is: (at 7.7 µM) 8.2%; under setting [1], 15%. Besides, where the note is “at 7.7 µM”, the percent response (vesicle binding) stood at 315%.
On to `COc1ccc(CC[n+]2cc(/N=C(\C)[O-])on2)cc1OC`, for which, for the setting “at 7.7 µM”, the double positive events was found to be 23.3% and the percent response (vesicle binding) turned out to be 430%. This compound also registered a double positive events under setting [1] of 10%.
Where the note is “at 7.7 µM”, `CNCCCc1ccccc1` registered a double positive events of 34.3% and a percent response (vesicle binding) of 368%. Under setting [1], the double positive events stood at 26.2%.
Take `CCCCCCC[n+]1ccc(-c2cc[n+](CCCCCCC)cc2)cc1`: for the setting “at 7.7 µM”, the double positive events amounted to 7.4% and the percent response (vesicle binding) amounted to 223%. The compound further gave a double positive events under setting [1] of 26.3%.
Consider `CCCNC(=O)N1[C@H]2CC[C@@H]1C(C(=O)OC)=C(c1ccc(F)cc1OCc1ccccc1)C2`, for which, where the note is “at 7.7 µM”, the double positive events came to 16.1% and the percent response (vesicle binding) came to 179%. The compound also displayed a double positive events under setting [1] of 28.8%.
`COC(=O)C1=C(c2c(C)noc2C)C[C@@H]2CC[C@H]1N2C(=O)NCc1ccc(F)cc1`: the double positive events (at 7.7 µM) was 12.1% and the double positive events under setting [1] worked out at 21.1%. The compound also came in with a percent response (vesicle binding) (at 7.7 µM) of 112%.
`CN(C(=O)COC(=O)c1cn(C)c2ccccc12)C1CCCCC1`: under “at 7.7 µM”, the double positive events worked out at 6.9% and the percent response (vesicle binding) is 181%. This compound showed a double positive events under setting [1] of 27.9%.
For the compound `COC(=O)C1=C(c2ccc(F)cc2OCc2ccccc2)C[C@@H]2CC[C@H]1N2C(=O)N1CCC(O)CC1`, the double positive events reads like this: (at 7.7 µM) 16.2%; under setting [1], 26.6%. The compound also gave a percent response (vesicle binding) (at 7.7 µM) of 189%.
Where the note is “at 7.7 µM”, `O=S(=O)(c1ccccc1)N1CCCCC1c1cccnc1` (stereo not drawn) came in with a double positive events of 31.8% and a percent response (vesicle binding) of 199%. Moreover, the double positive events under setting [1] stood at 10.5%.
`CCCCn1c(O)c(C(CC)=NCc2ccc3c(c2)OCO3)c(=O)[nH]c1=O`: for the setting “at 7.7 µM”, the double positive events was 18.7% and the percent response (vesicle binding) was 107%. This compound also displayed a double positive events under setting [1] of 5.7%.
As to `C[C@]12CCC3C(CC[C@H]4C[C@@H](O)CC[C@]34C)C1CC[C@@H]2OC(=O)[C@H](N)CCCCN` (stereo partly drawn), the double positive events by setting is: (at 7.7 µM) 24.1%; under setting [1], 30.1%. Moreover, for the setting “at 7.7 µM”, the percent response (vesicle binding) was determined as 177%.
Where the note is “at 7.7 µM”, `Cc1ccc(-c2nc3ccccc3c(=O)n2-c2ccccn2)cc1` showed a double positive events of 26.1% and a percent response (vesicle binding) of 125%. The compound also gave a double positive events under setting [1] of 19.6%.
`C=CC(=O)NCNC(=O)C=C`: where the note is “at 7.7 µM”, the double positive events is 13.5% and the percent response (vesicle binding) came out at 520%. Moreover, the double positive events under setting [1] is 9.1%.
Turning to `O=C(O)c1cccc(N=Nc2c(O)[nH]c(=O)[nH]c2=O)c1`, under “at 7.7 µM”, the double positive events stood at 10.2% and the percent response (vesicle binding) was 318%. The same compound yielded a double positive events under setting [1] of 37.4%.
Take `COC(=O)C1=C(c2ccc(OCc3ccccc3)cc2)C[C@@H]2CC[C@H]1N2C(=O)NCc1ccc(N(C)C)cc1`: for the setting “at 7.7 µM”, the double positive events was 13.6% and the percent response (vesicle binding) is 125%. For the same compound, under setting [1], the double positive events is 18.1%.
Turning to `Cc1cc(C(=O)OCC(=O)Nc2ccc(F)cc2)c(C)n1C1CC1`, the double positive events was found to be 21.1% (at 7.7 µM) and 25.7% under setting [1]. Besides, the percent response (vesicle binding) (at 7.7 µM) came out at 602%.
Under “at 7.7 µM”, `O=[N+]([O-])c1cccc(CN2CCN(Cc3ccc(Cl)cc3)CC2)c1` yielded a double positive events of 26% and a percent response (vesicle binding) of 219%. Besides, under setting [1], the double positive events came to 10.9%.
Where the note is “at 7.7 µM”, `Cc1ccc(C)c(CN2CCC(n3nnc4cc(F)ccc43)CC2)c1` registered a double positive events of 10.3% and a percent response (vesicle binding) of 134%. Besides, the double positive events under setting [1] worked out at 20.1%.
Consider `COc1ccc(CNCCc2c(C)[nH]c3ccc(OC(F)(F)F)cc23)c(OC)c1`, for which, for the setting “at 7.7 µM”, the double positive events came to 34.4% and the percent response (vesicle binding) stood at 676%. Moreover, the double positive events under setting [1] amounted to 6.7%.
For `COc1ccc2c3c1OC1[C@H](O)CCC4[C@@H](C2)N(C)CC[C@]314` (stereo partly drawn) the same measures were 4.6%, 85.6% and 15.2%.
For the compound `COC(=O)C1=C(c2ccc3ccccc3c2)C[C@@H]2CC[C@H]1N2C(=O)NCc1ccc(F)cc1`, the double positive events was 6.8% (at 7.7 µM) and 24% under setting [1]. Under “at 7.7 µM”, this compound gave a percent response (vesicle binding) of 105%.
Under “at 7.7 µM”, `COC(=O)C1=C(c2ccc(F)cc2OCc2ccccc2)C[C@@H]2CC[C@H]1N2C(=O)NCc1ccc([N+](=O)[O-])cc1` showed a double positive events of 15.3% and a percent response (vesicle binding) of 109%. The compound further registered a double positive events under setting [1] of 19.7%.
Where the note is “at 7.7 µM”, `CCOC(=O)CC(NC(=O)C(Cc1ccc(N(CCCl)CCCl)cc1)NC(C)=O)C(=O)OCC` (stereo not drawn) returned a double positive events of 15% and a percent response (vesicle binding) of 273%. Under setting [1], this compound displayed a double positive events of 18.5%.
On to `Fc1ccccc1CCNCc1ccccc1`, for which the double positive events is, setting by setting: (at 7.7 µM) 13.1%; under setting [1], 27.5%. For the setting “at 7.7 µM”, this compound registered a percent response (vesicle binding) of 289%.
As to `CNCCc1ccccc1`, where the note is “at 7.7 µM”, the double positive events turned out to be 16.3% and the percent response (vesicle binding) amounted to 286%. Further, the double positive events under setting [1] was found to be 6.8%.
For `O=C(Nc1ccc(Cl)cc1)O/N=C(\c1ccccc1)c1ccccn1` the same measures were 9.3%, 237% and 6.7%.
Consider `c1cc2c(cc1[C@H]1OC[C@H]3[C@@H]1CO[C@H]3c1ccc3c(c1)OCO3)OCO2`, for which, under “at 7.7 µM”, the double positive events is 26.4% and the percent response (vesicle binding) is 244%. Also, the double positive events under setting [1] came out at 30%.
